From patent US10350188B2, “Use of Neu1 sialidase inhibitors in the treatment of cancer” (priority 2011, dated 2019)
At least one compound was matched to its structure with a doubt left.

Tested on: MiaPaCa-2-eGFP pancreatic cancer cells implanted in RAG2/Cγ double mutant Balbc xenograft mice
Test: MiaPaCa-2-eGFP pancreatic cancer xenograft in RAG2/Cγ double mutant Balbc mice
Type: in vivo, mouse
Conditions: oseltamivir phosphate monotherapy 2, 10, 50 and 100 mg/kg i.p.; vs untreated control
Procedure: Tumour measurements were taken twice a week.
MiaPaCa-2-eGFP pancreatic cancer cells at 1.5×10^6 in 0.2 mL were implanted subcutaneously in the right back flank of these mice. Each mouse in the study was identified by an ear punch number. Twice a week each mouse following implantation of the cancer cells was monitored for tumour volume growth (length and width) at the site of implantation, body weights, and body condition scoring. Scoring the body condition of rodents is a non-invasive method for assessing health and establishing endpoints for adults where body weight is not a viable monitoring tool, such as with tumour models. Body condition scores (BC) range from 1(emaciation) to 5 (obesity). An anticipated BCS of 2—under conditioned—or lower, requires justification in the protocol. Scores are determined by frequent visual and hands-on examination of each animal. The hands-on evaluation is done by gently holding the mouse by the base of the tail and passing a finger over the sacroiliac bones. The findings are matched to the descriptions and diagrams of BC ranges to determine a score. Scores are documented for each animal.

CCOC(=O)C1=C[C@@H](OC(CC)CC)[C@H](NC(C)=O)[C@@H](N)C1 [oseltamivir phosphate]
Survival rates: significantly extended the survival rates
